No constants are given. Whether binding was seen depends on the method and setting. In cells and extracts the contact can be indirect. Some entries that bind do so weakly or less than the wild type.
Key:
[1] = biological target: NLRP3, endogenous in mouse bone marrow-derived macrophages and splenocytes (mouse (endogenous in BMDMs and splenocytes of C57BL/6 mice)) (UniProt Q8R4B8); test: co-IP; splenocytes of CLP mice treated with recombinant protein by intraperitoneal injection; IP with αHis or αNLRP3, IB with αNLRP3, αASC or αHis; only the binder purified
[2] = biological target: NLRP3, endogenous in mouse bone marrow-derived macrophages and splenocytes (mouse (endogenous in BMDMs and splenocytes of C57BL/6 mice)) (UniProt Q8R4B8); test: co-IP; BMDMs primed with LPS (100 ng/mL), stimulated with ATP (5 mM) and treated with purified rVehicle, rGRA9C or rGRA9C^Q200L (0.1, 1 or 10 μg/mL); IP with αHis or αNLRP3, IB with αNLRP3, αASC or αHis; only the binder purified
[3] = biological target: GST-GRA9 C-terminal domain (aa 195-288), expressed in 293T cells (Toxoplasma gondii); test: pull-down; 293T cells 48 h after transfection with mammalian GST or GST-GRA9 and truncated mutant constructs together with Flag-NLRP3; GST pull down, IB with αFlag

Sequences of proteins named here, by UniProt entry; tags and fusion partners are left off. Residues count along the entry.
UniProt Q8R4B8: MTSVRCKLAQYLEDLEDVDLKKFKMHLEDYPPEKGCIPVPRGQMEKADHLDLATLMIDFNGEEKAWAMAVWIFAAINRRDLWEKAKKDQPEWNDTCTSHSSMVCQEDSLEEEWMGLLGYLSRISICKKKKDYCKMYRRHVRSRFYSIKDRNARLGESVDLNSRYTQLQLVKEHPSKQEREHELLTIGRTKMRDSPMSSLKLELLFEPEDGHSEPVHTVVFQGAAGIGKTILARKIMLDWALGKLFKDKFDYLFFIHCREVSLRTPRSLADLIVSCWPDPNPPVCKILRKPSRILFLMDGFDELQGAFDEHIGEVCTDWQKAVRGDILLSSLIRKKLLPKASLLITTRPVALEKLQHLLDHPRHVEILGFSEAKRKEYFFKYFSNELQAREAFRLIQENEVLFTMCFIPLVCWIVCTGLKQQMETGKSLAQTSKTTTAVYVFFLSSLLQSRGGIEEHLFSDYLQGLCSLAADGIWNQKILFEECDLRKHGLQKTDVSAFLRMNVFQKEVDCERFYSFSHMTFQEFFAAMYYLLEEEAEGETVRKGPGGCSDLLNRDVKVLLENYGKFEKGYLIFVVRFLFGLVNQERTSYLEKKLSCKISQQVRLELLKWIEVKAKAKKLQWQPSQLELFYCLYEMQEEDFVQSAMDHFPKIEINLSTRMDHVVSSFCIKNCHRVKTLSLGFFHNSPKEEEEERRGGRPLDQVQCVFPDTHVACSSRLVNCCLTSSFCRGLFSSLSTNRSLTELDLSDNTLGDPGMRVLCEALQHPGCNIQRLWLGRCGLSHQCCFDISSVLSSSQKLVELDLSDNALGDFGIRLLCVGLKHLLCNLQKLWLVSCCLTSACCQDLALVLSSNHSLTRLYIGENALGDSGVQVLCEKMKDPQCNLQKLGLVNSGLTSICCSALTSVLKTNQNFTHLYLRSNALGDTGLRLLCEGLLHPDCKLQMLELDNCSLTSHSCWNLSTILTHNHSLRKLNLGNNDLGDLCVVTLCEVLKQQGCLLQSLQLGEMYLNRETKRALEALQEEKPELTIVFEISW
UniProt A0A125YVM0, residues 195-288: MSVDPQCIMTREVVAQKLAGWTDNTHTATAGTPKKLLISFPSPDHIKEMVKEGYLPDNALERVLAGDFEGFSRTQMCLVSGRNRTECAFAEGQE
UniProt Q96P20: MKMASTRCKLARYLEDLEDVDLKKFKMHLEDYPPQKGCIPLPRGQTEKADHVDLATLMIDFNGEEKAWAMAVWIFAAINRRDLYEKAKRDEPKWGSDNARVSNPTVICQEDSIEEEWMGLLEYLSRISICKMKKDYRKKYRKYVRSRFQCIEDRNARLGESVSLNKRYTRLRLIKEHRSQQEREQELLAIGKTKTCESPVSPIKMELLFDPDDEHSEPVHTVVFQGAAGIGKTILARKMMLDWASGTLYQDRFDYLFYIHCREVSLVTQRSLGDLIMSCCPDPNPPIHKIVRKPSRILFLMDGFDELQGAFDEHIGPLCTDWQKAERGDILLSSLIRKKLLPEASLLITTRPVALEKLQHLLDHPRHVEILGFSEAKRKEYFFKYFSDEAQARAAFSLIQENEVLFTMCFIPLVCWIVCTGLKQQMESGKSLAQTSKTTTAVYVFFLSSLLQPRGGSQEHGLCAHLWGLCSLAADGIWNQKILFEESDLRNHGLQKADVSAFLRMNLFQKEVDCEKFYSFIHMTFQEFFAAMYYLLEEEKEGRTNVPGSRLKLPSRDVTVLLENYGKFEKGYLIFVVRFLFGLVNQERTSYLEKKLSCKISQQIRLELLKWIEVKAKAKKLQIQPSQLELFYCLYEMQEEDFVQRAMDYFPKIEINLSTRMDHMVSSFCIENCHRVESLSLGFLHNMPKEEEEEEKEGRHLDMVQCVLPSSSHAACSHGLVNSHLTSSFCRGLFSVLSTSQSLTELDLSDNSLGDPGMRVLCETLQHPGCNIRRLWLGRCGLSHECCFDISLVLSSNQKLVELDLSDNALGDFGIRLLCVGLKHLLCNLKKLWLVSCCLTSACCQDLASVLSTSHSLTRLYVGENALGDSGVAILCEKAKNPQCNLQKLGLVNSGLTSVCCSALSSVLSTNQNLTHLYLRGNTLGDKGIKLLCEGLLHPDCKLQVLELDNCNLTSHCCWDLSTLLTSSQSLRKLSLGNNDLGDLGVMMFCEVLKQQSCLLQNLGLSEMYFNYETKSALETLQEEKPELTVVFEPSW

“recombinant GRA9C (6xHis-GRA9C, GRA9 residues 195-288) (from UniProt A0A125YVM0 195-288) (domain or fragment)” was tested, and the binding [1] was “binds” and the binding [2] was “binds”.
For “Flag-NLRP3 (wild type, full length), expressed in 293T cells (from UniProt Q96P20 1-1036)”, the binding [3] was “binds”.

— article PMC7696177
